Data reported in paper PMC4443662.
No constants are given. Whether binding was seen depends on the method and setting. In cells and extracts the contact can be indirect. Some results given as binding are weak or reduced against the parent protein; the word gives no strength.

Chains of the proteins cited; added tags and fusions are not shown.
UniProt O96013: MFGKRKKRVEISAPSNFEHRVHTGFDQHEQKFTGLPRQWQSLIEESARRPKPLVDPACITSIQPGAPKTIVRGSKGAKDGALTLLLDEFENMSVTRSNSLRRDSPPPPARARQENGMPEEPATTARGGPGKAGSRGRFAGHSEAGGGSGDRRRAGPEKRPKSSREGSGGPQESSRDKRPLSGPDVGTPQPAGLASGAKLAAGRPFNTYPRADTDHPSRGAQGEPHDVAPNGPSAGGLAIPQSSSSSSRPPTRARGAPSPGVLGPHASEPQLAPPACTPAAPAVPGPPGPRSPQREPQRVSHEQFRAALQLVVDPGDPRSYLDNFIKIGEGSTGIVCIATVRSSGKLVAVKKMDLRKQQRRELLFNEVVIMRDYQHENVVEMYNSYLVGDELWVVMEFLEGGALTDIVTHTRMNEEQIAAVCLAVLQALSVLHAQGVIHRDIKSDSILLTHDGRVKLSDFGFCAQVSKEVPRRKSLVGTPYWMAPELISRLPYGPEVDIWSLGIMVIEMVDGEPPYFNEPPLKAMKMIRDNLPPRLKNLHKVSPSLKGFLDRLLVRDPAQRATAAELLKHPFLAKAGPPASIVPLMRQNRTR
UniProt P53667: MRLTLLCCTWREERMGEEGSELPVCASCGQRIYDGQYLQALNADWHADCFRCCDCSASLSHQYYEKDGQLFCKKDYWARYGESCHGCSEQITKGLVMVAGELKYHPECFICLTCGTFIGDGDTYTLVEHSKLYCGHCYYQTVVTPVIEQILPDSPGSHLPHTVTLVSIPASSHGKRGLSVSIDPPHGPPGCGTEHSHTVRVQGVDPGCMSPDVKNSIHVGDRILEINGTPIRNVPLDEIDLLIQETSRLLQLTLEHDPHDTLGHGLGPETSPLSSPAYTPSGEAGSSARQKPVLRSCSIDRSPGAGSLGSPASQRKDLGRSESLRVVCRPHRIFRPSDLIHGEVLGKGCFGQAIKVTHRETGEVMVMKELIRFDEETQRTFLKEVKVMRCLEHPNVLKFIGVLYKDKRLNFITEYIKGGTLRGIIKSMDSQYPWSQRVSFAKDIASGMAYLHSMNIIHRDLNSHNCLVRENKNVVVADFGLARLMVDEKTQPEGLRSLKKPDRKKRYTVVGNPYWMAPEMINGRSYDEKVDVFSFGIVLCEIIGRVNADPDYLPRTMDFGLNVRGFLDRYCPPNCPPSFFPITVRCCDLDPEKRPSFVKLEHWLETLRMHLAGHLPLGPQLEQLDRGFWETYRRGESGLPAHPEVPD

Legend:
[1] = biological target: P21-activated kinase 4 (human (endogenous in A549 and NCI-H520)) (UniProt O96013); assay: co-IP; A549 or NCI-H520 cell lysates (1 % Triton X-100, 150 mM NaCl, 20 mM Tris-Cl pH 7.4, 4 °C) immunoprecipitated with PAK4 or LIMK1 antibody and Protein G Plus/Protein A-Agarose; western blotting with anti-LIMK1 or anti-PAK4; control IgG
[2] = biological target: LIM kinase 1 (human (endogenous in A549 and NCI-H520)) (UniProt P53667); assay: as above

In the case of “LIM kinase 1 (from UniProt P53667 1-647)”, the binding [1] is reported as “binds”.
For “P21-activated kinase 4 (from UniProt O96013 1-591)”, the binding [2] was “binds”.
